Experimental data: US20230416228A1 (Forkhead Biotherapeutics, Inc., priority 2020, published 2023)
The structures given here were assigned with low confidence; some may be wrong.

By UniProt entry, the sequences of proteins in these tests, tags left out.
UniProt Q12778, whole entry T24A/S256A/S319A: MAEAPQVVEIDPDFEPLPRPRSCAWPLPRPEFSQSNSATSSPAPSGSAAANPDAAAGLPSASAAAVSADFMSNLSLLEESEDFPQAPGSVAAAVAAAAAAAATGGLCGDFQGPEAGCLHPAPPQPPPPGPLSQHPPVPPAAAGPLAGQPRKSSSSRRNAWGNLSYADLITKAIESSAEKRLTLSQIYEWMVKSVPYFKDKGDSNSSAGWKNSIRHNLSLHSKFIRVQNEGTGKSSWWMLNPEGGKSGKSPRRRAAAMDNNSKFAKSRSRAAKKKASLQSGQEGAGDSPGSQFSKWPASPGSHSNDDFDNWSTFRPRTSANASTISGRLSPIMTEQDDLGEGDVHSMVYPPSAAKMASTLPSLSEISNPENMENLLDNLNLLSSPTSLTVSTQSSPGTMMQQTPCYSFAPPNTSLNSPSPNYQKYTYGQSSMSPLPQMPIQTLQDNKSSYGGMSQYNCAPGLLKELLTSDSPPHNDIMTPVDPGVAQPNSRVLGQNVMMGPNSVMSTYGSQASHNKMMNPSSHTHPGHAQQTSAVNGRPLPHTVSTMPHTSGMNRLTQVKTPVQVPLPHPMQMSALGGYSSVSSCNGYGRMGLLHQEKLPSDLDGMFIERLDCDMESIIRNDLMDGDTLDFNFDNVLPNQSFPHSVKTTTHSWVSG

Biological target: human FOXO1 (constitutively active form Thr24Ala, Ser256Ala, Ser319Ala) (Homo sapiens, UniProt Q12778, S256A/S319A/T24A)
Assay: FOXO1 inhibitor activity assay: cell-based transcriptional (luciferase) reporter assay in HEK293 cells
Details: HEK293 cells transfected with insulin response element firefly luciferase reporter, FOXO1 and Renilla luciferase; 10-point dose response 50 μM to 2.5 nM; 24 hours

`COc1ccc(C(=O)Nc2cc(-c3nc4cc(N5CCOCC5)ccc4[nH]3)n(C)n2)cc1Cl` and `C[C@@H]1CN(c2ccc(C(=O)Nc3cc(-c4nc5cc(N6CCOCC6)ccc5[nH]4)n(C)n3)cn2)C[C@H](C)N1` cannot be ordered by IC50: < 100 nM for the first, < 100 nM for the second.

`COc1cc(F)c2[nH]c(-c3cc(NC(=O)c4ccc(N5CCN(C)CC5)nc4)n[nH]3)nc2c1` was tested, and the IC50 was > 1000 nM.
